Data as given in PubChem BioAssay AID1259254 (NCATS, 2017)

Aim: 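Genome-wide screen for genes that prevent DNA re-replication in cancer cells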 (primary screen)
Cells: human HCT116 colorectal cancer cells
Reagents: single siRNA against human genes
Time to read-out: 3 days
Measured: 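Imaged Hoechst DNA stain sorts each cell into a cycle phase by DNA amount; per plate, G2 fraction set to 0% for non-targeting and 100% for GMNN siRNA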
Direction: G2 robust z-score and G2 cells, % of GMNN control: higher = more G2 cells, more excess DNA replication
Call rule: 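An siRNA counts as active if its G2 robust z-score lies at least 5 MADs above the screen median; here such calls match roughly 38% of GMNN control or more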
This is an unselected part of about 59,000 reagents tested. About 1,550 of them (2.6%) count as active. 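G2 share is only a proxy for re-replication; each gene was hit by three separate siRNAs, and active genes were retested.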 Reagents against one gene are numbered here. Not all columns of the deposit are shown. No sequences are given here. Not given: the amount of reagent.

{"target gene": "B3GNT4", "reagent no.": 1, "G2 robust z-score": -0.488, "G2 cells, % of GMNN control": -0.468, "outcome": "inactive"}
{"target gene": "B3GNT4", "reagent no.": 2, "G2 robust z-score": 1.03, "G2 cells, % of GMNN control": 10.2, "outcome": "inactive"}
{"target gene": "B3GNT4", "reagent no.": 3, "G2 robust z-score": 2.97, "G2 cells, % of GMNN control": 23.9, "outcome": "inactive"}
{"target gene": "PRSS16 (serine protease 16)", "reagent no.": 1, "G2 robust z-score": 0.519, "G2 cells, % of GMNN control": 6.62, "outcome": "inactive"}
{"target gene": "PRSS16 (serine protease 16)", "reagent no.": 2, "G2 robust z-score": 2.06, "G2 cells, % of GMNN control": 17.5, "outcome": "inactive"}
{"target gene": "PRSS16 (serine protease 16)", "reagent no.": 3, "G2 robust z-score": -0.6, "G2 cells, % of GMNN control": -1.26, "outcome": "inactive"}
{"target gene": "PIP5K1B (phosphatidylinositol-4-phosphate 5-kinase type 1 beta)", "reagent no.": 1, "G2 robust z-score": -1.42, "G2 cells, % of GMNN control": -7.03, "outcome": "inactive"}
{"target gene": "PIP5K1B (phosphatidylinositol-4-phosphate 5-kinase type 1 beta)", "reagent no.": 2, "G2 robust z-score": -0.726, "G2 cells, % of GMNN control": -2.14, "outcome": "inactive"}
{"target gene": "PIP5K1B (phosphatidylinositol-4-phosphate 5-kinase type 1 beta)", "reagent no.": 3, "G2 robust z-score": -0.0114, "G2 cells, % of GMNN control": 2.89, "outcome": "inactive"}
{"target gene": "OTUD1 (OTU deubiquitinase 1)", "reagent no.": 1, "G2 robust z-score": 0.888, "G2 cells, % of GMNN control": 9.21, "outcome": "inactive"}
{"target gene": "OTUD1 (OTU deubiquitinase 1)", "reagent no.": 2, "G2 robust z-score": 1.89, "G2 cells, % of GMNN control": 16.3, "outcome": "inactive"}
{"target gene": "OTUD1 (OTU deubiquitinase 1)", "reagent no.": 3, "G2 robust z-score": 0.543, "G2 cells, % of GMNN control": 6.79, "outcome": "inactive"}
{"target gene": "ADCY3 (adenylate cyclase 3)", "reagent no.": 1, "G2 robust z-score": 0.00178, "G2 cells, % of GMNN control": 2.98, "outcome": "inactive"}
{"target gene": "ADCY3 (adenylate cyclase 3)", "reagent no.": 2, "G2 robust z-score": 0.198, "G2 cells, % of GMNN control": 4.36, "outcome": "inactive"}
{"target gene": "ADCY3 (adenylate cyclase 3)", "reagent no.": 3, "G2 robust z-score": -0.53, "G2 cells, % of GMNN control": -0.76, "outcome": "inactive"}
{"target gene": "DBI (diazepam binding inhibitor, acyl-CoA binding protein)", "reagent no.": 1, "G2 robust z-score": -0.806, "G2 cells, % of GMNN control": -2.7, "outcome": "inactive"}
{"target gene": "DBI (diazepam binding inhibitor, acyl-CoA binding protein)", "reagent no.": 2, "G2 robust z-score": 0.818, "G2 cells, % of GMNN control": 8.72, "outcome": "inactive"}
{"target gene": "DBI (diazepam binding inhibitor, acyl-CoA binding protein)", "reagent no.": 3, "G2 robust z-score": 0.822, "G2 cells, % of GMNN control": 8.75, "outcome": "inactive"}
{"target gene": "DUSP26 (dual specificity phosphatase 26)", "reagent no.": 1, "G2 robust z-score": -1.34, "G2 cells, % of GMNN control": -6.45, "outcome": "inactive"}
{"target gene": "DUSP26 (dual specificity phosphatase 26)", "reagent no.": 2, "G2 robust z-score": 4.77, "G2 cells, % of GMNN control": 36.5, "outcome": "inactive"}
{"target gene": "DUSP26 (dual specificity phosphatase 26)", "reagent no.": 3, "G2 robust z-score": -1.31, "G2 cells, % of GMNN control": -6.23, "outcome": "inactive"}
{"target gene": "IMPG2 (interphotoreceptor matrix proteoglycan 2)", "reagent no.": 1, "G2 robust z-score": -0.869, "G2 cells, % of GMNN control": -3.15, "outcome": "inactive"}
{"target gene": "IMPG2 (interphotoreceptor matrix proteoglycan 2)", "reagent no.": 2, "G2 robust z-score": -0.57, "G2 cells, % of GMNN control": -1.04, "outcome": "inactive"}
{"target gene": "IMPG2 (interphotoreceptor matrix proteoglycan 2)", "reagent no.": 3, "G2 robust z-score": -0.981, "G2 cells, % of GMNN control": -3.93, "outcome": "inactive"}

A stretch taken from the entries so far:
{"target gene": "ADCY3 (adenylate cyclase 3)", "reagent no.": 2, "G2 robust z-score": 0.198, "G2 cells, % of GMNN control": 4.36, "outcome": "inactive"}
{"target gene": "ADCY3 (adenylate cyclase 3)", "reagent no.": 3, "G2 robust z-score": -0.53, "G2 cells, % of GMNN control": -0.76, "outcome": "inactive"}
